Results are given in words; binding and its absence hold for the method and conditions named. For some assays here: Binding calls can cover weak binding; strength is not graded here. For some assays here: Sequences can lack the tags named with a protein. Each block holds one molecule with its values, some of them ahead of it.
Key:
Assay in all cases: ectopic mistargeting to mitochondria (Tom20-GBP); mEGFP-, GFP- or mECitrine-tagged protein 1 mistargeted to mitochondria by Tom20 tagged with GFP-binding protein (GBP) nanobody in live S. pombe cells; recruitment of tdTomato-, mCherry- or RFP-tagged protein 2 to mitochondria seen by confocal microscopy
[1] = molecular target: T1, 3nmt1-mECitrine-Ync13 (S. pombe) (UniProt O13683)
T1 sequence: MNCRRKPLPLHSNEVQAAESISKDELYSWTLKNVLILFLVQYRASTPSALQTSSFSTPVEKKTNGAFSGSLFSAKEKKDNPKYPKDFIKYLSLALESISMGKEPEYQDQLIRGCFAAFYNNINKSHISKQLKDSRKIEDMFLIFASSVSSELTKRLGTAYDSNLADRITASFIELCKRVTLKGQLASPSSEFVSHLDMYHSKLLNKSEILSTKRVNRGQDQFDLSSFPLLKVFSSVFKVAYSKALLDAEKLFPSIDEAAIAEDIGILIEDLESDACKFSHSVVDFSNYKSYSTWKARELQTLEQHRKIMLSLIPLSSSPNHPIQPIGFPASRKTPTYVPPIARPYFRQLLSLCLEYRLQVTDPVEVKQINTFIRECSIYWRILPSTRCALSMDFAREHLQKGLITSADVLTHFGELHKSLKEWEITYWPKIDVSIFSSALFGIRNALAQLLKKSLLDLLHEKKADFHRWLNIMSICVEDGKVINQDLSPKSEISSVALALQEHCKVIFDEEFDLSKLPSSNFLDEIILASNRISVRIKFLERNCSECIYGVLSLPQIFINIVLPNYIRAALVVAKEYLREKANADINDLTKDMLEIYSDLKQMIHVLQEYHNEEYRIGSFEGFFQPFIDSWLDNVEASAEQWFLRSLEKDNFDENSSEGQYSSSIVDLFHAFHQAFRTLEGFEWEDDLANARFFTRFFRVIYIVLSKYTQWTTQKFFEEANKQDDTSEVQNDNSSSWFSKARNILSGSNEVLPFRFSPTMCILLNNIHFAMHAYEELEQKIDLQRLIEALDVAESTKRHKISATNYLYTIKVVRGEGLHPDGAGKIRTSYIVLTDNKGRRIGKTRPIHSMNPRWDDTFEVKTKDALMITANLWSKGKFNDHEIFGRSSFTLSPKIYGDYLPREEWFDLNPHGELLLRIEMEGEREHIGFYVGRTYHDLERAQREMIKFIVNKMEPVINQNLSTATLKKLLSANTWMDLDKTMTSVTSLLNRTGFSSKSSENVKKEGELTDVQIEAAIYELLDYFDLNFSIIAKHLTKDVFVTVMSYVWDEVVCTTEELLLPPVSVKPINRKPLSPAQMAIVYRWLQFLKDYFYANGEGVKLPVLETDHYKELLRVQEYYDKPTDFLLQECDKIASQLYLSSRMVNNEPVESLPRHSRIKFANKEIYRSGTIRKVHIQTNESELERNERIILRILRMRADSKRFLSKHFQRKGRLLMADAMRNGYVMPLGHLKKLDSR

[2] = molecular target: T2, Rng10-mEGFP (S. pombe) (UniProt Q9P6L9)
T2 sequence: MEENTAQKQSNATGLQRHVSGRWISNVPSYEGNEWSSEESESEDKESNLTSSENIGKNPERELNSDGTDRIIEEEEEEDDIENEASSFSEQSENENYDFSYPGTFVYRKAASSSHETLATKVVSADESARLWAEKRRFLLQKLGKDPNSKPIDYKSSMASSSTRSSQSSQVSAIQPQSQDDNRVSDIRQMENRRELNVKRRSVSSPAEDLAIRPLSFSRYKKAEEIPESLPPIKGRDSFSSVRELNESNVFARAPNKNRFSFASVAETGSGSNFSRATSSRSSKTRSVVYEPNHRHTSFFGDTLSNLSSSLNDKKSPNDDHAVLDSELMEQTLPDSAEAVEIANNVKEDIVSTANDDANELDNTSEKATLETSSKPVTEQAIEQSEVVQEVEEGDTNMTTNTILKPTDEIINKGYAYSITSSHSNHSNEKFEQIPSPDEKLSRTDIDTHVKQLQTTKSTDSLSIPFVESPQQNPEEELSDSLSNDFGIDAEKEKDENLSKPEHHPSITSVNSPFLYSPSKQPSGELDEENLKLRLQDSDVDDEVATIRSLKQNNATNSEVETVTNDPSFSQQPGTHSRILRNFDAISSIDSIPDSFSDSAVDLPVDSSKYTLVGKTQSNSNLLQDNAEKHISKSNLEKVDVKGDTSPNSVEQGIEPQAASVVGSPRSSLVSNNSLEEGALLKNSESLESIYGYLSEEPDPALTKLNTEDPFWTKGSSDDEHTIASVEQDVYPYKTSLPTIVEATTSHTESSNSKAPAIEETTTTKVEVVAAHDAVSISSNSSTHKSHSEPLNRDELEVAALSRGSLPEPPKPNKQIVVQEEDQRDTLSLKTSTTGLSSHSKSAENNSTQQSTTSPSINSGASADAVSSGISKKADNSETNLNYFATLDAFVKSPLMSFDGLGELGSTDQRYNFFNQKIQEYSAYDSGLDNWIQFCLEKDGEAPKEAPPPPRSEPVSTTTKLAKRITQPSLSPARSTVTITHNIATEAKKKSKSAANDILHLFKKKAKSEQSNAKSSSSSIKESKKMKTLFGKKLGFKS

[3] = molecular target: T3, Rga7-mEGFP (S. pombe) (UniProt O94466)
T3 sequence: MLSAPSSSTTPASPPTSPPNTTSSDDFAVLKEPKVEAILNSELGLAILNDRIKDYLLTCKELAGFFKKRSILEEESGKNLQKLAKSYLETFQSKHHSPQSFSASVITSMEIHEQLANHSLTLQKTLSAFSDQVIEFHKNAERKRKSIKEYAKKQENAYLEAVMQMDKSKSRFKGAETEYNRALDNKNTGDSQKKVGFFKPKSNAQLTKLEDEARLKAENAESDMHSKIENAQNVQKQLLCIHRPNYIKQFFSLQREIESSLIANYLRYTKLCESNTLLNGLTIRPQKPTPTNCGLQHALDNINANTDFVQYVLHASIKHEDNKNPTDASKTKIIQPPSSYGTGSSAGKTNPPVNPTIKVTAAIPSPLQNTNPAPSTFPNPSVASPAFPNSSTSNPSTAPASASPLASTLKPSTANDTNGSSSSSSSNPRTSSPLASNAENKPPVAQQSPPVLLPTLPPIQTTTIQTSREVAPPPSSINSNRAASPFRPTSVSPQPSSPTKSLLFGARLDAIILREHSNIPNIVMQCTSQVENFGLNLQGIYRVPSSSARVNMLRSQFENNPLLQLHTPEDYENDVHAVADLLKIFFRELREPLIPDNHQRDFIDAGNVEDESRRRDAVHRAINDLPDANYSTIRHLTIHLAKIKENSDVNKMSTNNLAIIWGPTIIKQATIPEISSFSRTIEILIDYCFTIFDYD

[4] = molecular target: Rga7(ΔF-BAR)-mEGFP (S. pombe)

Molecule: Sec3-tdTomato (S. pombe)
binding [2]: no binding | binding [3]: no binding

B1: Ync13-tdTomato (protein, UniProt O13683 1-1237)
chain: MNCRRKPLPLHSNEVQAAESISKDELYSWTLKNVLILFLVQYRASTPSALQTSSFSTPVEKKTNGAFSGSLFSAKEKKDNPKYPKDFIKYLSLALESISMGKEPEYQDQLIRGCFAAFYNNINKSHISKQLKDSRKIEDMFLIFASSVSSELTKRLGTAYDSNLADRITASFIELCKRVTLKGQLASPSSEFVSHLDMYHSKLLNKSEILSTKRVNRGQDQFDLSSFPLLKVFSSVFKVAYSKALLDAEKLFPSIDEAAIAEDIGILIEDLESDACKFSHSVVDFSNYKSYSTWKARELQTLEQHRKIMLSLIPLSSSPNHPIQPIGFPASRKTPTYVPPIARPYFRQLLSLCLEYRLQVTDPVEVKQINTFIRECSIYWRILPSTRCALSMDFAREHLQKGLITSADVLTHFGELHKSLKEWEITYWPKIDVSIFSSALFGIRNALAQLLKKSLLDLLHEKKADFHRWLNIMSICVEDGKVINQDLSPKSEISSVALALQEHCKVIFDEEFDLSKLPSSNFLDEIILASNRISVRIKFLERNCSECIYGVLSLPQIFINIVLPNYIRAALVVAKEYLREKANADINDLTKDMLEIYSDLKQMIHVLQEYHNEEYRIGSFEGFFQPFIDSWLDNVEASAEQWFLRSLEKDNFDENSSEGQYSSSIVDLFHAFHQAFRTLEGFEWEDDLANARFFTRFFRVIYIVLSKYTQWTTQKFFEEANKQDDTSEVQNDNSSSWFSKARNILSGSNEVLPFRFSPTMCILLNNIHFAMHAYEELEQKIDLQRLIEALDVAESTKRHKISATNYLYTIKVVRGEGLHPDGAGKIRTSYIVLTDNKGRRIGKTRPIHSMNPRWDDTFEVKTKDALMITANLWSKGKFNDHEIFGRSSFTLSPKIYGDYLPREEWFDLNPHGELLLRIEMEGEREHIGFYVGRTYHDLERAQREMIKFIVNKMEPVINQNLSTATLKKLLSANTWMDLDKTMTSVTSLLNRTGFSSKSSENVKKEGELTDVQIEAAIYELLDYFDLNFSIIAKHLTKDVFVTVMSYVWDEVVCTTEELLLPPVSVKPINRKPLSPAQMAIVYRWLQFLKDYFYANGEGVKLPVLETDHYKELLRVQEYYDKPTDFLLQECDKIASQLYLSSRMVNNEPVESLPRHSRIKFANKEIYRSGTIRKVHIQTNESELERNERIILRILRMRADSKRFLSKHFQRKGRLLMADAMRNGYVMPLGHLKKLDSR
binding [4]: binds

Now from value to molecule:

binding [1]: no binding
Molecule: Ede1-mCherry (S. pombe)

binding [1]: no binding
Molecule: Sec3-mCherry (S. pombe)
